Assay results published in PubChem BioAssay AID270 (DTP/NCI, 2004).
The list is a part of this screen's results and no random one: it gathers some chemical classes. Other doses and runs of a compound may be missing. T/C gives the treated animals as a percentage of the vehicle group. Schedule codes are those of the source, read here as Q, the interval in days (D) or hours (H), X, the number of doses. Some T/C values carry the count of animals alive at the toxicity check; where neither a count nor a note follows, no animal had died by that day. Some entries give survivors of the animals treated and no T/C: the source holds a T/C of zero for them, seemingly a mark for toxic or unscored doses. Some doses without a T/C left all or most animals alive at the check, yet need not have been tolerated: the source hardly ever lists a survival T/C far under the control, and the zero likely stands for such cases as well. Counts of survivors are from the toxicity check (mostly the fifth day) where no day follows; animals may have died later. Counts of survivors are from the toxicity check, whose day is not always given; animals may have died later. Where survival is the endpoint, the PubChem record calls one and a half times the control and up active, and a quarter to a half above the control has no call in these data; cut-offs in other NCI protocols can differ.

Tested on: BDF1 mice, s.c. Lewis lung carcinoma, T/C %
Test: NCI In Vivo Anticancer Drug Screen. Data for tumor model Lewis Lung Carcinoma (subcutaneous) in B6D2F1 (BDF1) mice
Experimental: The antitumor activity of compounds was measured in mice bearing transplantable tumors. Survival or tumor size were measured and the results are expressed as the measurement made in the treated group (T) divided by the measurement made in the vehicle treated control group (C). The tumor model used in this assay is Lewis Lung Carcinoma (subcutaneous) in B6D2F1 (BDF1) mice

[1] = T/C endpoint: mean tumor weight, dose: 4.5 mg/kg/injection, schedule: Q01DX011 (ip), vehicle: saline, evaluated on day 12, higher T/C = larger tumour
[2] = T/C endpoint: mean tumor weight, dose: 9.0 mg/kg/injection, schedule: Q01DX011 (ip), vehicle: saline, evaluated on day 12, higher T/C = larger tumour
[3] = T/C endpoint: mean tumor weight, dose: 18.0 mg/kg/injection, schedule: Q01DX011 (ip), vehicle: saline, higher T/C = larger tumour
[4] = T/C endpoint: mean tumor weight, dose: 36.0 mg/kg/injection, schedule: Q01DX011 (ip), vehicle: saline, higher T/C = larger tumour

For Cc1[nH]c(=O)[nH]c(=O)c1N(CCCl)CCCl, the T/C (T/C endpoint: median survival time, dose: 0.5 mg/kg/injection, schedule: Q01DX009 (ip), vehicle: Klucel (hydroxypropylcellulose) (HPC), higher T/C = longer survival) was 123 % of control, the T/C (T/C endpoint: median survival time, dose: 1.0 mg/kg/injection, schedule: Q01DX009 (ip), vehicle: Klucel (hydroxypropylcellulose) (HPC), higher T/C = longer survival) was 126 % of control and the survivor count (T/C endpoint: median survival time, dose: 2.0 mg/kg/injection, schedule: Q01DX009 (ip), vehicle: Klucel (hydroxypropylcellulose) (HPC), higher T/C = longer survival) was 9 of 9. The survivor count (T/C endpoint: median survival time, dose: 4.0 mg/kg/injection, schedule: Q01DX009 (ip), vehicle: Klucel (hydroxypropylcellulose) (HPC), higher T/C = longer survival) was 9 of 10.

For NC1CCCCC1.O=P(O)(NCCCO)N(CCCl)CCCl, the T/C (T/C endpoint: mean tumor weight, dose: 25.0 mg/kg/injection, schedule: Q01DX011 (ip), vehicle: saline, evaluated on day 12, higher T/C = larger tumour) was 82 % of control, the T/C (T/C endpoint: mean tumor weight, dose: 50.0 mg/kg/injection, schedule: Q01DX011 (ip), vehicle: saline, evaluated on day 12, higher T/C = larger tumour) was 66 % of control and the T/C (T/C endpoint: mean tumor weight, dose: 100.0 mg/kg/injection, schedule: Q01DX011 (ip), vehicle: saline, evaluated on day 12, higher T/C = larger tumour) was 47 % of control. For the same compound, the T/C (T/C endpoint: mean tumor weight, dose: 200.0 mg/kg/injection, schedule: Q01DX011 (ip), vehicle: saline, evaluated on day 12, higher T/C = larger tumour) was 16 % of control.

O=P1(N(CCCl)CCCl)OCCCN1CCCl (stereo not drawn) was tested, and the T/C (T/C endpoint: mean tumor weight, dose: 12.5 mg/kg/injection, schedule: Q01DX011 (ip), vehicle: saline, evaluated on day 12, higher T/C = larger tumour) was 36 % of control [5 of 6 alive].

With CCOC(=O)COc1ccc(N(CCCl)CCCl)cc1 the T/C (T/C endpoint: mean tumor weight, dose: 2.5 mg/kg/injection, schedule: Q01DX011 (ip), vehicle: other, evaluated on day 12, higher T/C = larger tumour) was 71 % of control, the T/C (T/C endpoint: mean tumor weight, dose: 5.0 mg/kg/injection, schedule: Q01DX011 (ip), vehicle: other, evaluated on day 12, higher T/C = larger tumour) was 112 % of control and the T/C (T/C endpoint: mean tumor weight, dose: 10.0 mg/kg/injection, schedule: Q01DX011 (ip), vehicle: other, evaluated on day 12, higher T/C = larger tumour) was 79 % of control. For the same compound, the T/C (T/C endpoint: mean tumor weight, dose: 20.0 mg/kg/injection, schedule: Q01DX011 (ip), vehicle: other, evaluated on day 12, higher T/C = larger tumour) was 72 % of control, the survivor count (T/C endpoint: mean tumor weight, dose: 20.0 mg/kg/injection, schedule: Q01DX011 (ip), vehicle: other, higher T/C = larger tumour) was 1 of 6 and the survivor count (T/C endpoint: mean tumor weight, dose: 40.0 mg/kg/injection, schedule: Q01DX011 (ip), vehicle: other, higher T/C = larger tumour) was 0 of 6. The survivor count (T/C endpoint: mean tumor weight, dose: 80.0 mg/kg/injection, schedule: Q01DX011 (ip), vehicle: other, higher T/C = larger tumour) was 0 of 6.

CC[C@H](C)[C@@H]1NC(=O)/C(=C(\C)O)C1=O was tested, and the T/C (T/C endpoint: mean tumor weight, dose: 31.3 mg/kg/injection, schedule: Q01DX011 (ip), vehicle: saline, evaluated on day 12, higher T/C = larger tumour) was 78 % of control, the T/C (T/C endpoint: mean tumor weight, dose: 62.5 mg/kg/injection, schedule: Q01DX011 (ip), vehicle: saline, evaluated on day 12, higher T/C = larger tumour) was 87 % of control [5 of 7 alive] and the survivor count (T/C endpoint: mean tumor weight, dose: 125.0 mg/kg/injection, schedule: Q01DX011 (ip), vehicle: saline, higher T/C = larger tumour) was 0 of 7. The survivor count (T/C endpoint: mean tumor weight, dose: 250.0 mg/kg/injection, schedule: Q01DX011 (ip), vehicle: saline, higher T/C = larger tumour) was 0 of 7.

For O[C@H](CNCCCl)[C@@H](O)CNCCCl, the T/C [1] was 72 % of control, the T/C [2] was 77 % of control and the survivor count [3] was 1 of 6. For the same compound, the survivor count [4] was 0 of 6.

For CCOP(=O)(CCBr)OCC, the T/C (T/C endpoint: mean tumor weight, dose: 148.0 mg/kg/injection, schedule: Q01DX011 (ip), vehicle: other, evaluated on day 12, higher T/C = larger tumour) was 107 % of control, the T/C (T/C endpoint: mean tumor weight, dose: 222.0 mg/kg/injection, schedule: Q01DX011 (ip), vehicle: other, evaluated on day 12, higher T/C = larger tumour) was 70 % of control and the T/C (T/C endpoint: mean tumor weight, dose: 333.0 mg/kg/injection, schedule: Q01DX011 (ip), vehicle: other, evaluated on day 12, higher T/C = larger tumour) was 81 % of control [5 of 6 alive]. The T/C (T/C endpoint: mean tumor weight, dose: 500.0 mg/kg/injection, schedule: Q01DX011 (ip), vehicle: other, evaluated on day 12, higher T/C = larger tumour) was 84 % of control.

In the case of NC(=O)c1cn[nH]c1/N=N/N(CCCl)CCCl, the T/C (T/C endpoint: median tumor weight (est.), dose: 67.7 mg/kg/injection, schedule: Q01DX009 (ip), vehicle: saline with Tween-80, evaluated on day 14, higher T/C = larger tumour) is reported as 122 % of control, the T/C (T/C endpoint: median tumor weight (est.), dose: 135.5 mg/kg/injection, schedule: Q01DX009 (ip), vehicle: saline with Tween-80, evaluated on day 14, higher T/C = larger tumour) is reported as 77 % of control and the T/C (T/C endpoint: median tumor weight (est.), dose: 271.0 mg/kg/injection, schedule: Q01DX009 (ip), vehicle: saline with Tween-80, evaluated on day 14, higher T/C = larger tumour) is reported as 82 % of control.

With O[C@H](CNCCCl)[C@H](O)CNCCCl the T/C (T/C endpoint: mean tumor weight, dose: 1.1 mg/kg/injection, schedule: Q01DX011 (ip), vehicle: other, evaluated on day 12, higher T/C = larger tumour) was 87 % of control, the T/C (T/C endpoint: mean tumor weight, dose: 2.2 mg/kg/injection, schedule: Q01DX011 (ip), vehicle: other, evaluated on day 12, higher T/C = larger tumour) was 93 % of control and the T/C (T/C endpoint: mean tumor weight, dose: 4.5 mg/kg/injection, schedule: Q01DX011 (ip), vehicle: other, evaluated on day 12, higher T/C = larger tumour) was 76 % of control. For the same compound, the T/C [1] was 42 % of control, the T/C [2] was 22 % of control [4 of 6 alive] and the survivor count [3] was 0 of 6. For the same compound, the survivor count [4] was 0 of 6.
